Experimental data taken from the supplement of paper PMC8616043.
Where a name gives a salt, the structure may show the parent alone. The list shows a part of the results. Repeats in this data set agree poorly, so a single value says little.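 PR50, a 50-repeat proline–arginine dipeptide protein from C9ORF72 (ALS/FTD), was expressed by transfection in U-2 OS human cells stably carrying a GFP sensor with import and classical export signals. Per-well nuclear-minus-cytoplasm GFP, normalized between in-plate DMSO (low) and PR-only (high), was scored versus other test wells; compounds well below zero were hits reversing PR.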

System: U-2 OS NCT-C biosensor cells expressing PR50
Assay: Z-score of normalised NCT-C biosensor translocation index in PR50-expressing cells; higher = more nuclear biosensor (more disrupted nuclear export)
Conditions: 3 µM; 24 h

| SMILES | Z-score |
| --- | --- |
| CC(NC(C)(C)C)C(=O)c1cccc(Cl)c1 (stereo not given) [Bupropion] | inactive: -0.075 |
| CC(NC(C)(C)C)C(=O)c1cccc(Cl)c1 (stereo not given) [Bupropion hydrochloride] | inactive: 1.86 |
| COc1cc2c(c(OC)c1OC)-c1ccc(SC)c(=O)cc1[C@@H](NC(C)=O)CC2 [Thiocolchicine] | inactive: 0.0649 |
| N[C@]1(C(=O)O)CC[C@H](C(=O)O)C1 (racemic) [trans-(±)-ACPD] | inactive: 1.04 |
| CCOC(=O)CC(SP(=S)(OC)OC)C(=O)OCC (stereo not given) [Malathion] | inactive: 0.0256 |
| CN1CC[C@@]2(C)c3cc(O)ccc3N(C)C12 (single isomer, unassigned; (-)) [(-)-Eseroline fumarate] | inactive: -0.14 |
| NCC(CC(=O)O)c1ccc(Cl)cc1 (stereo not given) [Baclofen] | inactive: -0.241 |
| CCN1C[C@]2(C)CC[C@H](O)[C@]34C1[C@@H](C[C@H]23)[C@@]1(O)C[C@H](OC)[C@H]2C[C@@H]4[C@@H]1[C@H]2O [Karakoline] | inactive: -0.0674 |
| CC(=O)[C@H]1CC[C@H]2[C@@H]3CC[C@H]4C[C@H](O)CC[C@]4(C)[C@H]3CC[C@]12C [5alpha-Pregnan- 3alpha-ol-20-one] | inactive: -0.394 |
| CN(C)CCc1ccc(O)cc1 [Hordenine sulfate] | inactive: 0.432 |
| COC1=C[C@@H]2[C@@H]3Cc4ccc(OC)c(O)c4[C@]2(CCN3C)CC1=O [Sinomenine] | inactive: -0.107 |
| CN1[C@@H]2C[C@@H](OC(=O)[C@H](CO)c3ccccc3)C[C@H]1[C@@H]1O[C@@H]12 [(-)-Scopolamine hydrobromide] | inactive: -0.689 |
| CN1[C@@H]2C[C@@H](OC(=O)[C@H](CO)c3ccccc3)C[C@H]1[C@@H]1O[C@@H]12 [Scopolamine·HBr] | inactive: 0.282 |
| O[C@H]1[C@H](O)[C@@H](O)CN2CC[C@H](O)[C@H]12 [Castanospermine] | inactive: -1.16 |
| Cc1sc2c(c1C)C(c1ccc(Cl)cc1)=N[C@@H](CC(N)=O)c1nnc(C)n1-2 | inactive: -0.619 |
| CN1C[C@H](C(=O)N[C@]2(C)O[C@@]3(O)[C@@H]4CCCN4C(=O)[C@H](Cc4ccccc4)N3C2=O)C=C2c3cccc4[nH]cc(c34)C[C@H]21 [Ergotamine Tartrate] | inactive: -0.234 |
| N[C@@H]1C[C@H]1c1ccccc1 [Tranylcypromine hydrochloride] | inactive: 1.2 |
| COc1cc(C(=O)OC2CC3CCC(C2)N3C)ccc1O (stereo not given) [Fillalbin] | inactive: -0.904 |
| NCC(CC(=O)O)c1ccc(Cl)cc1 (racemic) [(±)-Baclofen] | inactive: 2.47 |
| C[C@H]1CC[C@@H]2[C@@H](C)[C@H]3[C@H](C[C@H]4[C@@H]5CC[C@H]6C[C@@H](O)CC[C@]6(C)[C@H]5CC[C@]34C)N2C1 [Demissidine] | inactive: 0.499 |

Rewritten in CSV form: part of the list above.
SMILES,Z-score
"CN1CC[C@@]2(C)c3cc(O)ccc3N(C)C12 (single isomer, unassigned; (-)) [(-)-Eseroline fumarate]",inactive: -0.14
NCC(CC(=O)O)c1ccc(Cl)cc1 (stereo not given) [Baclofen],inactive: -0.241
